Experimental data from PubChem BioAssay (Tox21).
“And” between values parts separate entries of the source, which are not always exact repeats. Equal values may be shown once. Inconclusive means that the source gave no clear call. Such entries were picked first, then a sample of the others. Potencies of inconclusive entries are doubtful fits and often do not repeat. Some compounds were tested as several samples or in several runs, with calls that do not always agree. The source made the active and inactive calls. Calls come from the whole dose curve; as a rule, active = well fitted inhibition curve with a large enough effect in the repeat runs; inconclusive = weak or mixed curves; inactive = no such curve, though single readings can be large or run the other way.

Chains of the proteins cited; added tags and fusions are not shown.
UniProt P10635, whole entry, looked up: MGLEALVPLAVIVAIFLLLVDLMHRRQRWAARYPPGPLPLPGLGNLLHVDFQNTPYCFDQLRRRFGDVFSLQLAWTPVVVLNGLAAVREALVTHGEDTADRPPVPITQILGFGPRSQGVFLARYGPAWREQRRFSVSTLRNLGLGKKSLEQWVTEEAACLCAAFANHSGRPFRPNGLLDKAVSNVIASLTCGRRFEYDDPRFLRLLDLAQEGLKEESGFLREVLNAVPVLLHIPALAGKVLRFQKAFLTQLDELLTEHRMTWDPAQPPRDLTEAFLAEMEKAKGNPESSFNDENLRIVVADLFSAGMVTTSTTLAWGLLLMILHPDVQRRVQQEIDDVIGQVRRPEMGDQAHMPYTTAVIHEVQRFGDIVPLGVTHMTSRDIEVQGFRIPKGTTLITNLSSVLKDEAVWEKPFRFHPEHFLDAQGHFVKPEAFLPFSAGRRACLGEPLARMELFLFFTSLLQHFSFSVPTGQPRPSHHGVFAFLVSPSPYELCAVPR

target: Cytochrome P450 2D6 (Homo sapiens) (UniProt P10635); assay: Cytochrome P450 Family 2 Subfamily D Member 6 (CYP2D6) small molecule antagonists: luciferase reporter qHTS assay (AID 1671196); conditions: P450-Glo CYP2D6 enzyme assay, luciferin luminescence, 1 h; series mostly up to 115 µM; activity change, negative = inhibition: at the top concentration; note: nearly all actives have a fitted effect of over 50% in size
Excerpt: U.S. Tox21 Program National Center for Advancing Translational Sciences [NCATS] U.S. Environmental Protection Agency [EPA] National Institutes of Environmental Health Sciences [NIEHS] National Toxicology Program [NTP] U.S. Food and Drug Administration [FDA] Tox21 Assay Overview: Cytochrome P450 (CYP) enzymes are membrane-bound hemeproteins that play a key role in metabolism of drugs and xenobiotics. Evaluation of the effect of chemicals on CYP isozymes is useful to minimize the adverse drug reactions and toxicities in drug development process. Tox21 chemicals were tested for their effect on CYP enzyme activities by using P450-Glo (TM) screening systems (Promega Corporation, Madison, WI). These systems provide a luminescent method containing proluciferin substrates and are converted to luciferin products by CYP isozymes. The luciferin products formed are detected with a luciferin detection reagent, and the amount of light produced is proportional to CYP activity. P450-Glo (TM) CYP2D6 screening system (Catalog. No. V9890) was used to detect the compounds that interfere in CYP2D6 activity.
Tox21 Assay Protocol Summary: Two ul of enzyme-substrate mix was dispensed into medium binding white/solid 1536-well plates (Greiner Bio-One North America Inc., Monroe, NC) using a BioRaptr Flying Reagent Dispenser (FRD, Beckman Coulter, Brea, CA). […] The assay plates were incubated at room temperature for 10 min. Then 2 ul of NADPH regeneration solution was added to each well of the assay plates using an FRD and incubated at room temperature for 1 h. The reaction was stopped by adding 4 ul of detection reagent using an FRD and after 20 min incubation at room temperature the luminescence signal was measured using a ViewLux plate reader (Perkin Elmer, Shelton, CT). Data were expressed as relative luminescence units.
% is set by controls: 0 for no effect and ±100 for the full control effect; potency is the fitted concentration of half-maximal effect.

SMILES	Potency	activity change, negative = inhibition
CCCCOCCOCCOC(=O)CCCCC(=O)OCCOCCOCCCC	inconclusive: 35.7 µM [inhibitor, partial curve] and inconclusive: 11.2 µM [inhibitor, full curve]	–
O=S1(=O)OC(c2ccc(O)cc2)(c2ccc(O)cc2)c2ccccc21	inconclusive: 71 µM [inhibitor, partial curve, poor fit]	–
CCc1cc2cc(OC)c(OC)cc2c(Cc2ccccc2)n1	inconclusive: 17.4 µM [inhibitor, partial curve]	–
COc1ccc([C@@H]2Sc3ccccc3N(CCN(C)C)C(=O)[C@@H]2OC(C)=O)cc1	inconclusive: 17.4 µM [inhibitor, partial curve]	–
C=Cc1cccc(C)c1	active: 39.5 µM and inactive	–
O=C(Nc1ccc(C(=O)O)c(O)c1)c1ccccc1	active: 15.5 µM	–
CC/C=C\C/C=C\C/C=C\CCCCCCCC(=O)OC	inconclusive: 56.4 µM [inhibitor, partial curve]	–
C=CC(C)(O)CCC=C(C)C (stereo not given)	inactive	–
CC(C)COC(=O)COc1cc(Cl)c(Cl)cc1Cl	inconclusive: 63.1 µM [inhibitor, partial curve]	–
OCCN1CCN(CCCN2c3ccccc3C=Cc3ccccc32)CC1	active: 13.8 µM	–
O=C(O)Cc1ccc(Cl)cc1Cl	active: 31.7 µM	–
O=C(CS(=O)Cc1ccco1)NC/C=C\COc1cc(CN2CCCCC2)ccn1 (stereo not given)	inconclusive: 27.5 µM [inhibitor, partial curve]	–
c1ccc2ccccc2c1	inconclusive: 70.7 µM [inhibitor, partial curve]	–
O=C1c2ccccc2C(=O)c2c(O)c(O)cc(O)c21	inconclusive: 79.6 µM [inhibitor, partial curve]	–
CCOc1cccc(-n2cc(C(=O)N3CCN(c4cc(C(=O)O)c5ccccc5c4)CC3)nc2-c2ccc(C)cc2)c1	inconclusive: 67.7 µM [inhibitor, partial curve, poor fit]	–
CC(C)COC(=O)C(C)C	–	inactive: -0.632%
CCCCCCCCCCCC(=O)OCC(C)OC(=O)CCCCC(=O)O (stereo not given)	–	inactive: -11.4% [at 53 µM]
Sc1nc2ccccc2s1	inconclusive: 63.3 µM [inhibitor, partial curve]	–
CC(C)(C)c1ccccc1	–	inactive: -8.72%
CC(C)(C)NC(N)=O	–	inactive: -1.16%

An excerpt from the list above, for reference:
SMILES	Potency	activity change, negative = inhibition
CCCCOCCOCCOC(=O)CCCCC(=O)OCCOCCOCCCC	inconclusive: 35.7 µM [inhibitor, partial curve] and inconclusive: 11.2 µM [inhibitor, full curve]	–
O=S1(=O)OC(c2ccc(O)cc2)(c2ccc(O)cc2)c2ccccc21	inconclusive: 71 µM [inhibitor, partial curve, poor fit]	–
CCc1cc2cc(OC)c(OC)cc2c(Cc2ccccc2)n1	inconclusive: 17.4 µM [inhibitor, partial curve]	–

Next results.

SMILES	Potency	activity change, negative = inhibition
CCCCOC(=O)CCS	inconclusive: 79.6 µM [inhibitor, partial curve, poor fit]	–
C=CCOC(=O)COCCC(C)C	inconclusive: 69.8 µM [inhibitor, partial curve]	–
CC(C)(N=C=O)c1cccc(C(C)(C)N=C=O)c1	inconclusive: 31.7 µM [inhibitor, partial curve]	–
Cn1c(=O)cc(Oc2ccc(F)cc2F)c2cnc(NCC(C)(C)O)nc21	inconclusive: 35.6 µM [inhibitor, partial curve]	–
Cc1ccc(OC(=O)CC(C)C)cc1	–	inactive: -10.7%
CC(CN)CCCN (stereo not given)	active: 22.4 µM	–
CC(COc1ccc(C(C)(C)C)cc1)OS(=O)OCCCl (stereo not given)	–	inactive: -9.5%
COc1cc(OC)c2ccc(=O)oc2c1	inconclusive: 71 µM [inhibitor, partial curve, poor fit]	–
Cc1cc(C(C#N)c2ccc(Cl)cc2)c(Cl)cc1NC(=O)c1cc(I)cc(I)c1O (stereo not given)	–	inactive: -3.85% [at 53 µM]
NC[C@H]1O[C@H](O[C@H]2[C@H](O[C@@H]3O[C@H](CO)[C@@H](O)[C@H]3O)C(O)[C@H](N)C[C@@H]2N)[C@H](N)[C@@H](O)[C@@H]1O (stereo not given in full)	–	inactive: -0.538% [at 10.5 µM]
OCCNCc1ccccc1	active: 35.6 µM	–
Cc1cn([C@H]2C[C@H](N=[N+]=[N-])[C@@H](CO)O2)c(=O)[nH]c1=O	inactive	–
COc1cc([C@H]2Oc3cc([C@H]4Oc5cc(O)cc(O)c5C(=O)[C@@H]4O)ccc3O[C@@H]2CO)ccc1O	inconclusive: 79.4 µM [inhibitor, partial curve, poor fit] and inconclusive: 34.7 µM [inhibitor, partial curve, poor fit]	–
[O-]/[N+](=N\O)c1ccccc1	inconclusive: 22.4 µM [inhibitor, partial curve]	–
CN(CCCN1c2ccccc2CCc2ccccc21)CC(=O)c1ccc(Cl)cc1	active: 7.76 µM	–
Nc1ccc(Cl)c(N)c1	inconclusive: 40 µM [inhibitor, partial curve]	–
NC(=O)NS(=O)(=O)c1ccc(N)cc1	–	inactive: -0.308% [at 53 µM]
CNCc1ccccc1	–	inactive: -91.8% [at 53 µM]
CO[C@H]1C=CO[C@@]2(C)Oc3c(C)c(O)c4c(O)c(c5c(c4c3C2=O)=NC2(CCN(CC(C)C)CC2)N=5)NC(=O)/C(C)=C\C=C/[C@H](C)[C@H](O)[C@@H](C)[C@@H](O)[C@@H](C)[C@H](OC(C)=O)[C@@H]1C	active: 39.1 µM	–
CCCCCCCCCCCCCCCCCC(=O)OCCCCCCCCCCCCCC(C)C	–	inactive: -10.5%
